Measured values from patent US20060148057A1, “Thioredoxin mutants and uses thereof” (priority 2002, published 2006).
At least one compound was matched to its structure with a doubt left.

Molecular target: T1, ASK1 (Homo sapiens, UniProt Q99683)
T1 construct: HUVEC were pretreated with DMSO (mock), simvastatin (1 μM, Statin) and rosiglitazone (5 μM, TZD); endogenous in cells; host or cells: HUVEC
T1 sequence (Q99683 1-1374): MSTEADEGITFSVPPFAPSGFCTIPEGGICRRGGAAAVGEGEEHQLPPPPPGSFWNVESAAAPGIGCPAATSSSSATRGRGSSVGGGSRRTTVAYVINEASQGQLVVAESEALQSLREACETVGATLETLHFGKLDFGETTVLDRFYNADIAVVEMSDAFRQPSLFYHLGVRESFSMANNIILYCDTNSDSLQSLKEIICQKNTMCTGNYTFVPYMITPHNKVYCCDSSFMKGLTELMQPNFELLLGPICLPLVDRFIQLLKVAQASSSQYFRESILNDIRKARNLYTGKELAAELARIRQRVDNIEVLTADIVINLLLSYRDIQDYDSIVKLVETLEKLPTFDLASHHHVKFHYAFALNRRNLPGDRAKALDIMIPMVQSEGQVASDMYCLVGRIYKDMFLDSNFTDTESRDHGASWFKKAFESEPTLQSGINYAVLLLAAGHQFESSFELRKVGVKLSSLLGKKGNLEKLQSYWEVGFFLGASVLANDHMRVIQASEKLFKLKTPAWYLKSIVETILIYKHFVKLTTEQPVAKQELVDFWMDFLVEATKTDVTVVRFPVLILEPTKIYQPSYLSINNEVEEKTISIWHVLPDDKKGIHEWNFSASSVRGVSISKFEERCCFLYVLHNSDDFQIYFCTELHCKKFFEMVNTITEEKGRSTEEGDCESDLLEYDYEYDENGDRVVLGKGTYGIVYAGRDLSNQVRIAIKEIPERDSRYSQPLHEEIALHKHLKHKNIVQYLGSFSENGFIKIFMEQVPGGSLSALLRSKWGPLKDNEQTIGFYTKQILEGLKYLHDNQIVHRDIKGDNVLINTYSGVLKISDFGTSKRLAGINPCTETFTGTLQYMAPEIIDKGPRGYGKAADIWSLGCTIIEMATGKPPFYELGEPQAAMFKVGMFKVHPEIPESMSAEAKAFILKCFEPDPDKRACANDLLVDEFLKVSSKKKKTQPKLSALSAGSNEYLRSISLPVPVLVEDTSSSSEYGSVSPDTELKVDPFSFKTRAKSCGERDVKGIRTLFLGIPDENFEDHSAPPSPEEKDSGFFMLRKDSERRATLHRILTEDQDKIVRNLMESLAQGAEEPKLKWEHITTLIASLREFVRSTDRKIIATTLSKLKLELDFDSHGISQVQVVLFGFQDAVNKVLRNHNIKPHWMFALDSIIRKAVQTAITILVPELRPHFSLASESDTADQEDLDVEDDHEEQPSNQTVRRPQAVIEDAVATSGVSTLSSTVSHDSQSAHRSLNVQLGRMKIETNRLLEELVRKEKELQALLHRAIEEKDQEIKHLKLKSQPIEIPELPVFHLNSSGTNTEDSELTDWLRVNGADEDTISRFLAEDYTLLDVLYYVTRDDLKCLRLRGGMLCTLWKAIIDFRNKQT
Experiment: TNF-induced ASK1 activation in HUVEC, in vitro kinase assay with GST-JNKK1
Format: cell-based
Conditions: HUVEC pretreated 30 min with simvastatin 1 μM or rosiglitazone 5 μM, then TNF 15 min

SMILES | TNF-induced ASK1 activation
CCC(C)(C)C(=O)O[C@H]1C[C@@H](C)C=C2C=C[C@H](C)[C@H](CC[C@@H]3C[C@@H](O)CC(=O)O3)[C@H]21 [simvastatin] | inhibit
CN(CCOc1ccc(CC2SC(=O)NC2=O)cc1)c1ccccn1 (centres unmarked) [rosiglitazone] | inhibit
